The record followed here is PubChem BioAssay AID192 (DTP/NCI, 2004).

Molecules are shown by their SMILES. The list is a part of this screen's results and no random one: it gathers tests that were run many times, whatever their T/C, doses with no T/C, and many T/C values between a quarter and a half above the control. Other doses and runs of a compound stand elsewhere. T/C is the treated group as % of the vehicle group. Some entries give survivors of the animals treated and no T/C: the source holds a T/C of zero for them, seemingly a mark for toxic or unscored doses. Some survivor counts are full or nearly so, which does not show that the dose was tolerated: survival well below the control is almost never listed, so the zero probably covers shortened survival too. Survivors were counted at the toxicity check, usually on the fifth day, unless a day is given; later deaths do not show. Schedules are NCI's codes, read here as Q, the interval in days (D) or hours (H), X, the number of doses. Some entries hold several experiments; the values are given in rising order. Brackets with × give the number of equal values in this list. Where survival is the endpoint, this PubChem deposit counts one and a half times the control or more as active, and values a quarter to a half above the control carry no call in these data; other NCI protocols may use other cut-offs. Some T/C values carry the count of animals alive at the toxicity check (mostly the fifth day); without a count, all were alive then.

The subject of the experiment is BDF1 mice, B16 melanoma ip, median survival T/C. Kind of experiment: NCI In Vivo Anticancer Drug Screen. Data for tumor model B16 Melanoma (intraperitoneal) in B6D2F1 (BDF1) mice. Particulars: T/C endpoint: median survival time, higher T/C = longer survival. The method in brief:
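Transplantable tumor model; survival or tumor size measured; reported as T/C, treated over vehicle control.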

[1] abbreviates: dose: 100.0 mg/kg/injection, schedule: Q01DX009 (ip), vehicle: Klucel (hydroxypropylcellulose) (HPC).
[2] abbreviates: dose: 200.0 mg/kg/injection, schedule: Q01DX009 (ip), vehicle: Klucel (hydroxypropylcellulose) (HPC).
Setting [3] is: dose: 400.0 mg/kg/injection, schedule: Q01DX009 (ip), vehicle: Klucel (hydroxypropylcellulose) (HPC).
Where [4] appears, read: dose: 400.0 mg/kg/injection, schedule: Q01DX009 (ip), vehicle: saline with Tween-80.
[5] abbreviates: dose: 100.0 mg/kg/injection, schedule: Q01DX009 (ip), vehicle: saline with Tween-80.
The mark [6] stands for this setting: dose: 2.5 mg/kg/injection, schedule: Q01DX009 (ip), vehicle: other.
[7] abbreviates: dose: 5.0 mg/kg/injection, schedule: Q01DX009 (ip), vehicle: other.
The mark [8] stands for this setting: dose: 15.0 mg/kg/injection, schedule: Q04DX003 (ip), vehicle: lactic acid.

On to `NC(=S)c1cn(C2OC(CO)C(O)C2O)c2ncnc(N)c12` (stereo not given), for which the survivor count (dose: 10.0 mg/kg/injection, schedule: Q01DX009 (ip), vehicle: saline) is 6 of 6 and the survivor count (dose: 20.0 mg/kg/injection, schedule: Q01DX009 (ip), vehicle: saline) is 0 of 6.

Regarding `CCc1ccccc1NC(=O)Nc1ccccc1OC`, the survivor count runs as follows: under setting [1], 10 of 10; under setting [2], 10 of 10; under setting [3], 10 of 10.

On to `COc1ccc(/C=C/c2nc3ccccc3nc2/C=C/c2ccc(OC)c(OC)c2)cc1OC`, for which the survivor count reads like this: (dose: 50.0 mg/kg/injection, schedule: Q01DX009 (ip), vehicle: Klucel (hydroxypropylcellulose) (HPC)) 10 of 10; under setting [1], 9 of 10; under setting [2], 8 of 10.

In the case of `CC(C)C(NC=O)C(=O)O` (stereo not given), under setting [4], the survivor count is given as 8 of 10.

Turning to `CCCCN(C)N=Nc1c(C(N)=O)n[nH]c1C`, the survivor count is on record as 9 of 10 under setting [5] and 8 of 10 (dose: 400.0 mg/kg/injection, schedule: Q04DX003 (ip), vehicle: saline with Tween-80).

As for `CCC[CH2][Sn]1([CH2]CCC)[O]OC(c2ccccc2)[O]1` (stereo not given), the T/C (dose: 0.75 mg/kg/injection, schedule: Q01DX009 (ip), vehicle: saline with Tween-80) is 131 % of control and the T/C (dose: 1.5 mg/kg/injection, schedule: Q01DX009 (ip), vehicle: saline with Tween-80) was 125 % of control. For the same compound, the survivor count by setting is: (dose: 6.0 mg/kg/injection, schedule: Q01DX009 (ip), vehicle: saline with Tween-80) 8 of 10; (dose: 12.0 mg/kg/injection, schedule: Q01DX009 (ip), vehicle: saline with Tween-80) 3 of 10; (dose: 24.0 mg/kg/injection, schedule: Q01DX009 (ip), vehicle: saline with Tween-80) 0 of 10.

Consider `COc1ccc2[nH]c3c(C)c4cc[n+](C)c(C)c4cc3c2c1`, for which the survivor count (dose: 160.0 mg/kg/injection, schedule: Q04DX003 (ip), vehicle: water) is listed as 4 of 10.

Consider `O=C(Nc1nncs1)c1cccs1`, for which the survivor count under setting [4] is 10 of 10.

Consider `C=CCOP(=O)(N1CC1C)N1CC1C` (stereo not given), for which the survivor count is, setting by setting: (dose: 100.0 mg/kg/injection, schedule: Q01DX009 (ip), vehicle: saline) 10 of 10; (dose: 200.0 mg/kg/injection, schedule: Q04DX003 (ip), vehicle: saline) 10 of 10.

Turning to `CC(=O)O.[Pb]`, the survivor count (dose: 25.0 mg/kg/injection, schedule: Q04DX003 (ip), vehicle: saline with Tween-80) is 8 of 10; the survivor count (dose: 50.0 mg/kg/injection, schedule: Q04DX003 (ip), vehicle: saline with Tween-80) is recorded as 8 of 10; the survivor count (dose: 100.0 mg/kg/injection, schedule: Q04DX003 (ip), vehicle: saline with Tween-80) is given as 6 of 10; the survivor count (dose: 200.0 mg/kg/injection, schedule: Q04DX003 (ip), vehicle: saline with Tween-80) is 6 of 10.

For `COc1ccc(C(C(N)=O)N2CCOCC2)cc1` (stereo not given), the survivor count under setting [1] is given as 10 of 10 and the survivor count under setting [3] is reported as 10 of 10.

`NNC(=O)c1ccccn1`: the survivor count (dose: 100.0 mg/kg/injection, schedule: Q01DX009 (ip), vehicle: water) is recorded as 6 of 6; the survivor count (dose: 200.0 mg/kg/injection, schedule: Q01DX009 (ip), vehicle: water) was 0 of 6; the survivor count (dose: 300.0 mg/kg/injection, schedule: Q01DX009 (ip), vehicle: water) was 0 of 6.

`COC1C(C)OC(OC2CC(C)(O)Cc3cc4c(c(O)c32)C(=O)c2c(O)cc3c(c2C4=O)OC2OC3(C)C(O)C(N(C)C)C2O)C(OC)C1(C)OC` (stereo not given): the survivor count is, setting by setting: (dose: 0.04 mg/kg/injection, schedule: Q01DX009 (ip), vehicle: other) 4 of 10; (dose: 0.08 mg/kg/injection, schedule: Q01DX009 (ip), vehicle: other) 4 of 10; (dose: 0.15 mg/kg/injection, schedule: Q01DX009 (ip), vehicle: other) 3 of 10; (dose: 0.16 mg/kg/injection, schedule: Q01DX009 (ip), vehicle: other) 7 of 10 and 10 of 10; (dose: 0.3 mg/kg/injection, schedule: Q01DX009 (ip), vehicle: other) 5 of 10; (dose: 0.31 mg/kg/injection, schedule: Q01DX009 (ip), vehicle: other) 7 of 10 and 10 of 10. The survivor count runs as follows: (dose: 0.6 mg/kg/injection, schedule: Q01DX009 (ip), vehicle: other) 3 of 10; (dose: 0.63 mg/kg/injection, schedule: Q01DX009 (ip), vehicle: other) 10 of 10; (dose: 1.25 mg/kg/injection, schedule: Q01DX009 (ip), vehicle: other) 0 of 10; under setting [6], 3 of 10, 6 of 10, 7 of 10 (2×); under setting [7], 3 of 10; (dose: 10.0 mg/kg/injection, schedule: Q01DX009 (ip), vehicle: other) 0 of 10, 4 of 10, 8 of 10, 9 of 10. Further, the survivor count under setting [8] was 9 of 10. Further, the T/C by setting is: (dose: 0.31 mg/kg/injection, schedule: Q01DX009 (ip), vehicle: other, evaluated on day 45) 145 % of control; (dose: 0.31 mg/kg/injection, schedule: Q01DX009 (ip), vehicle: other, evaluated on day 60) 211 % of control; (dose: 0.62 mg/kg/injection, schedule: Q01DX009 (ip), vehicle: other) 96, 107 [7 of 10 alive], 117, 161, 189 % of control; (dose: 1.25 mg/kg/injection, schedule: Q01DX009 (ip), vehicle: other, evaluated on day 45) 164 % of control; (dose: 1.25 mg/kg/injection, schedule: Q01DX009 (ip), vehicle: other, evaluated on day 60) 112, 132 [8 of 10 alive], 144, 186 [9 of 10 alive], 217 % of control; under setting [6], 101 and 228 % of control. Also, the T/C is 117, 203 [9 of 10 alive], 218 % of control under setting [7]; 136 % of control (dose: 5.4 mg/kg/injection, schedule: Q04DX003 (ip), vehicle: lactic acid); 135 % of control (dose: 9.0 mg/kg/injection, schedule: Q04DX003 (ip), vehicle: lactic acid); 131 % of control under setting [8].

Turning to `C[Si]1(C)CCCSC1`, the survivor count under setting [5] was 10 of 10.

Regarding `CCC(=O)Nc1ccc(F)cc1`, the survivor count is on record as 10 of 10 under setting [1], 10 of 10 under setting [2] and 10 of 10 under setting [3].

`ClC1CCC[N-]C1.ClC1CCC[N-]C1.[Cl][Pt+2]([Cl])([Cl])[Cl]` (stereo not given): the T/C (dose: 12.5 mg/kg/injection, schedule: Q01DX009 (ip), vehicle: saline with Tween-80) is 130 % of control.

Turning to `CN(C)CCCN1c2ccc(O)cc2Sc2ccc(Cl)cc21`, the survivor count is reported as 10 of 10 (dose: 6.2 mg/kg/injection, schedule: Q01DX009 (ip), vehicle: other); 10 of 10 (dose: 12.5 mg/kg/injection, schedule: Q01DX009 (ip), vehicle: other); 7 of 10 (dose: 25.0 mg/kg/injection, schedule: Q01DX009 (ip), vehicle: other); 6 of 10 (dose: 50.0 mg/kg/injection, schedule: Q01DX009 (ip), vehicle: other); 0 of 10 (dose: 100.0 mg/kg/injection, schedule: Q01DX009 (ip), vehicle: other). Moreover, the T/C (dose: 25.0 mg/kg/injection, schedule: Q01DX009 (ip), vehicle: saline with Tween-80) was 126 % of control.

Take `c1cc2cc3c(cc2cc1CC1=NCCc2cc4c(cc21)OCO4)OCO3`: the survivor count (dose: 75.0 mg/kg/injection, schedule: Q01DX009 (ip), vehicle: other) is on record as 6 of 10 and the survivor count (dose: 300.0 mg/kg/injection, schedule: Q01DX009 (ip), vehicle: other) is given as 6 of 10.
